Test results as given in PubChem BioAssay AID248 (DTP/NCI, 2004).
The list is a part of this screen's results and no random one: it covers a few groups of compounds. Not every dose and run of a compound is shown. T/C gives the treated animals as a percentage of the vehicle group. For survival time, this PubChem deposit counts one and a half times the control or more as active, and values a quarter to a half above the control carry no call in these data; other NCI protocols may use other cut-offs. Some T/C values are marked as having no survivor count here; that says nothing about deaths at the dose. Schedules are NCI's codes, read here as Q, the interval in days (D) or hours (H), X, the number of doses. Some entries were tested several times; the values are given in rising order. Some schedule codes hold Z or #, which are not explained here.

Tested on: L1210 leukemia ip in BDF1 mice, survival T/C
Assay: NCI In Vivo Anticancer Drug Screen. Data for tumor model L1210 Leukemia (intraperitoneal) in B6D2F1 (BDF1) mice
Conditions: T/C endpoint: mean survival time, higher T/C = longer survival

## ClCCN(CCCl)c1ccccc1
dose: 0.5 mg/kg/injection, schedule: Q01DX009 (ip), vehicle: saline
  T/C: 102 % of control [survivor count not shown]
dose: 1.0 mg/kg/injection, schedule: Q01DX009 (ip), vehicle: saline
  T/C: 105 % of control [survivor count not shown]
dose: 1.0 mg/kg/injection, schedule: Q01DX015 (ip), vehicle: other
  T/C: 96 % of control [survivor count not shown]
dose: 2.0 mg/kg/injection, schedule: Q01DX009 (ip), vehicle: saline
  T/C: 96 % of control [survivor count not shown]
dose: 2.0 mg/kg/injection, schedule: Q01DX015 (ip), vehicle: other
  T/C: 102 % of control [survivor count not shown]
dose: 4.0 mg/kg/injection, schedule: Q01DX009 (ip), vehicle: saline
  T/C: 120 % of control [survivor count not shown]
dose: 4.0 mg/kg/injection, schedule: Q01DX015 (ip), vehicle: other
  T/C: 95 % of control [survivor count not shown]
dose: 4.0 mg/kg/injection, schedule: Q01DX Z (ip), vehicle: saline
  T/C: 91 % of control [survivor count not shown]
dose: 8.0 mg/kg/injection, schedule: Q01DX009 (ip), vehicle: saline
  T/C: 108 % of control [survivor count not shown]
dose: 8.0 mg/kg/injection, schedule: Q01DX015 (ip), vehicle: other
  T/C: 101 % of control [survivor count not shown]
dose: 16.0 mg/kg/injection, schedule: Q01DX015 (ip), vehicle: other
  T/C: 106 % of control [survivor count not shown]
dose: 32.0 mg/kg/injection, schedule: Q01DX015 (ip), vehicle: other
  T/C: 108 % of control [survivor count not shown]
dose: 40.0 mg/kg/injection, schedule: Q01DX009 (ip), vehicle: saline with Tween-80
  T/C: 150 % of control [survivor count not shown]
dose: 44.0 mg/kg/injection, schedule: Q01DX015 (ip), vehicle: other
  T/C: 103 % of control [survivor count not shown]
dose: 50.0 mg/kg/injection, schedule: Q01DX001 (ip), vehicle: other
  T/C: 118 % of control [survivor count not shown]
dose: 60.0 mg/kg/injection, schedule: Q01DX009 (ip), vehicle: saline with Tween-80
  T/C: 93 % of control [survivor count not shown]
dose: 100.0 mg/kg/injection, schedule: Q01DX001 (ip), vehicle: other
  T/C: 153 % of control [survivor count not shown]
dose: 200.0 mg/kg/injection, schedule: Q01DX001 (ip), vehicle: other
  T/C: 168 % of control [survivor count not shown]

## CCCCOP(=O)(Cl)N(CC)CC (stereo unspecified)
dose: 50.0 mg/kg/injection, schedule: Q01DX009 (ip), vehicle: DMSO
  T/C: 105 % of control [survivor count not shown]
dose: 100.0 mg/kg/injection, schedule: Q01DX009 (ip), vehicle: DMSO
  T/C: 94 % of control [survivor count not shown]

## O=CCCCc1ccc(N(CCCl)CCCl)cc1
dose: 1.0 mg/kg/injection, schedule: Q12HX018 (ip), vehicle: Klucel (hydroxypropylcellulose) (HPC)
  T/C: 104 % of control [survivor count not shown]
dose: 1.0 mg/kg/injection, schedule: Q12HX018 (sc), vehicle: olive oil, sesame oil, peanut oil
  T/C: 109 % of control [survivor count not shown]
dose: 2.0 mg/kg/injection, schedule: Q12HX018 (ip), vehicle: Klucel (hydroxypropylcellulose) (HPC)
  T/C: 106 % of control [survivor count not shown]
dose: 2.0 mg/kg/injection, schedule: Q12HX018 (ip), vehicle: acetone
  T/C: 120 % of control [survivor count not shown]
dose: 2.0 mg/kg/injection, schedule: Q12HX018 (sc), vehicle: olive oil, sesame oil, peanut oil
  T/C: 106 % of control [survivor count not shown]
dose: 3.9 mg/kg/injection, schedule: Q12HX018 (ip), vehicle: Klucel (hydroxypropylcellulose) (HPC)
  T/C: 105 % of control [survivor count not shown]
dose: 4.0 mg/kg/injection, schedule: Q12HX018 (ip), vehicle: Klucel (hydroxypropylcellulose) (HPC)
  T/C: 89 [survivor count not shown] and 93 % of control [survivor count not shown]
dose: 4.0 mg/kg/injection, schedule: Q12HX018 (ip), vehicle: acetone
  T/C: 122 % of control [survivor count not shown]
dose: 4.0 mg/kg/injection, schedule: Q12HX018 (sc), vehicle: olive oil, sesame oil, peanut oil
  T/C: 115 % of control [survivor count not shown]
dose: 6.0 mg/kg/injection, schedule: Q12HX018 (ip), vehicle: Klucel (hydroxypropylcellulose) (HPC)
  T/C: 94 [survivor count not shown], 104 [survivor count not shown], 108 % of control [survivor count not shown]
dose: 6.0 mg/kg/injection, schedule: Q12HX018 (ip), vehicle: acetone
  T/C: 156 % of control [survivor count not shown]
dose: 6.0 mg/kg/injection, schedule: Q12HX018 (sc), vehicle: olive oil, sesame oil, peanut oil
  T/C: 131 % of control [survivor count not shown]
dose: 8.0 mg/kg/injection, schedule: Q12HX018 (ip), vehicle: Klucel (hydroxypropylcellulose) (HPC)
  T/C: 94 [survivor count not shown] and 101 % of control [survivor count not shown]
dose: 8.0 mg/kg/injection, schedule: Q12HX018 (ip), vehicle: acetone
  T/C: 88 % of control [survivor count not shown]
dose: 8.0 mg/kg/injection, schedule: Q12HX018 (sc), vehicle: olive oil, sesame oil, peanut oil
  T/C: 129 % of control [survivor count not shown]
dose: 9.0 mg/kg/injection, schedule: Q12HX018 (ip), vehicle: Klucel (hydroxypropylcellulose) (HPC)
  T/C: 111 % of control [survivor count not shown]
dose: 10.0 mg/kg/injection, schedule: Q12HX018 (ip), vehicle: Klucel (hydroxypropylcellulose) (HPC)
  T/C: 106 % of control [survivor count not shown]
dose: 10.0 mg/kg/injection, schedule: Q12HX018 (sc), vehicle: olive oil, sesame oil, peanut oil
  T/C: 128 % of control [survivor count not shown]
dose: 12.0 mg/kg/injection, schedule: Q12HX018 (ip), vehicle: Klucel (hydroxypropylcellulose) (HPC)
  T/C: 114 % of control [survivor count not shown]
dose: 12.0 mg/kg/injection, schedule: Q12HX018 (sc), vehicle: olive oil, sesame oil, peanut oil
  T/C: 107 % of control [survivor count not shown]
dose: 13.0 mg/kg/injection, schedule: Q12HX018 (ip), vehicle: Klucel (hydroxypropylcellulose) (HPC)
  T/C: 126 % of control [survivor count not shown]
dose: 20.0 mg/kg/injection, schedule: Q12HX018 (ip), vehicle: Klucel (hydroxypropylcellulose) (HPC)
  T/C: 112 % of control [survivor count not shown]
dose: 30.0 mg/kg/injection, schedule: Q12HX018 (ip), vehicle: Klucel (hydroxypropylcellulose) (HPC)
  T/C: 129 % of control [survivor count not shown]

## ClCCN(CCCl)Cc1nc2ccc(Cl)cc2[nH]1
dose: 3.0 mg/kg/injection, schedule: Q01DX010 (ip), vehicle: carboxymethylcellulose (CMC)
  T/C: 93 % of control [survivor count not shown]
dose: 6.0 mg/kg/injection, schedule: Q01DX010 (ip), vehicle: carboxymethylcellulose (CMC)
  T/C: 96 % of control [survivor count not shown]
dose: 10.0 mg/kg/injection, schedule: Q01DX001 (ip), vehicle: saline
  T/C: 109 % of control [survivor count not shown]
dose: 12.0 mg/kg/injection, schedule: Q01DX010 (ip), vehicle: carboxymethylcellulose (CMC)
  T/C: 100 % of control [survivor count not shown]
dose: 20.0 mg/kg/injection, schedule: Q01DX001 (ip), vehicle: saline
  T/C: 111 % of control [survivor count not shown]
dose: 24.0 mg/kg/injection, schedule: Q01DX010 (ip), vehicle: carboxymethylcellulose (CMC)
  T/C: 108 % of control [survivor count not shown]
dose: 40.0 mg/kg/injection, schedule: Q01DX001 (ip), vehicle: saline
  T/C: 105 % of control [survivor count not shown]

## Cc1nc(-c2ccc(N(CCCl)CCCl)cc2)cs1
dose: 50.0 mg/kg/injection, schedule: Q01DX001 (ip), vehicle: carboxymethylcellulose (CMC)
  T/C: 105 % of control [survivor count not shown]
dose: 100.0 mg/kg/injection, schedule: Q01DX001 (ip), vehicle: carboxymethylcellulose (CMC)
  T/C: 97 % of control [survivor count not shown]
dose: 200.0 mg/kg/injection, schedule: Q01DX001 (ip), vehicle: carboxymethylcellulose (CMC)
  T/C: 97 % of control [survivor count not shown]
dose: 400.0 mg/kg/injection, schedule: Q01DX001 (ip), vehicle: carboxymethylcellulose (CMC)
  T/C: 111 % of control [survivor count not shown]

## Cc1ccc(CN(CCCl)CCCl)cc1C
dose: 12.0 mg/kg/injection, schedule: Q01DX015 (ip), vehicle: saline
  T/C: 112 % of control [survivor count not shown]
dose: 18.0 mg/kg/injection, schedule: Q01DX015 (ip), vehicle: saline
  T/C: 93 % of control [survivor count not shown]
